In the experiment the target is T1, GST-MD36N4 protein (human MD36 C terminal part fused to glutathione S-transferase) (human) (UniProt Q9Y613).
T1 sequence: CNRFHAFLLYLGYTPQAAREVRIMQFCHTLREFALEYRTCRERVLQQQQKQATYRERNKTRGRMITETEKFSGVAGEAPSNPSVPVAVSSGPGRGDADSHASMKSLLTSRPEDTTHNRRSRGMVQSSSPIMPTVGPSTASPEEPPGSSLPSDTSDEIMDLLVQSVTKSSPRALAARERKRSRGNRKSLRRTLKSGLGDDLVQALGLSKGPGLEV
The experiment in a line: plate binding inhibition test; competitor of IRAP-His on GST-MD36N4-coated wells.

These are yes or no findings as the source states them, for the method shown. Some results given as binding are weak or reduced against the parent protein; the word gives no strength. Sequences can lack the tags named with a protein.

Take VRGLGEHEMDEDEEDYESSAKLLGMSFM (biotinylated (position not given)) [biotinylated IRAP (55-82) peptide, chemically synthesized, without His-tag]: the binding entry is listed as “binds”.

Values taken from patent US20040072742A1.
